The chains behind the UniProt entries cited, without tags or fusion partners. Residues count along the entry.
UniProt P08246, 30-267 limits assumed: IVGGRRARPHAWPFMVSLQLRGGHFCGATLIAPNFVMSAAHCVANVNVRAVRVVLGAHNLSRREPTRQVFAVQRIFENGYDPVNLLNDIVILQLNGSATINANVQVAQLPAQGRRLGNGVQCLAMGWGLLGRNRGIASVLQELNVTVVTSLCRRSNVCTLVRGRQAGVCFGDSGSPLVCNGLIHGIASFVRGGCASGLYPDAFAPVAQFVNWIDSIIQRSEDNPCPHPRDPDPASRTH

According to patent publication US9040516B2, “Uracil derivative and use thereof for medical purposes” (SUMITOMO DAINIPPON PHARMA CO., LTD., priority 2011, dated 2015):

Biological target: human neutrophil elastase (Homo sapiens, UniProt P08246)
Assay: Inhibitory action 2 against human neutrophil elastase (Test Example 2; fluorogenic substrate MeOSuc-AAPV-AMC, buffer with 400 mM NaCl, 0.2 mg/ml BSA)
Settings: read-out: IC50 value (compound concentration required for 50% inhibition of human neutrophil elastase), 37° C.
Method: Assay buffer (0.4 unit/ml HNE (human neutrophil elastase, available from Elastin Products Company), 200 mM HEPES [N-(2-hydroxyethyl)piperazine-N′-(2-ethanesulfonic acid)], pH 7.5, 400 mM NaCl, 0.2 mg/ml BSA (bovine serum albumin)) 100 μl, water for injection 20 μl and 1% DMSO (dimethyl sulfoxide) solution of the present compound 20 μl were mixed in a 96 well plate and the mixed solutions were pre-incubated at 37° C. for five minutes. After pre-incubation, MeOSuc-AAPV-AMC (methoxysuccinyl-alanyl-alanyl-prolyl-valyl-aminomethyl cumaride (available from Sigma Aldrich Corp.) solution as fluorogenic substrate (which was dissolved in 10% DMSO solution so as to adjust to 0.5 mM) 40 μl was added to the above-prepared mixed solution so as to initiate the reaction, and the mixture was incubated at 37° C. for five minutes. The fluorescence intensity of AMC was measured at an excitation wavelength of 380 nm and a fluorescence wavelength of 460 nm and the inhibition ratio was determined.

| Compound | IC50 |
| --- | --- |
| CC(=O)NS(=O)(=O)c1cnn(-c2ccc(C#N)cc2)c1-c1c(C)n(-c2cccc(C(F)(F)F)c2)c(=O)n(C)c1=O | 14.3 nM |
| Cc1c(-c2c(S(=O)(=O)N3CCCC3)cnn2-c2ccc(C#N)cc2)c(=O)n(C)c(=O)n1-c1cccc(C(F)(F)F)c1 | 21.7 nM |
| CCNC(=O)c1cnn(-c2ccc(C#N)cc2)c1-c1c(C)n(-c2cccc(C(F)(F)F)c2)c(=O)n(C(C)C)c1=O | 6 nM |

Further lines, results first:

| IC50 | Compound |
| --- | --- |
| 26 nM | Cc1c(-c2c(CC(N)=O)cnn2-c2ccc(C#N)cc2)c(=O)n(C)c(=O)n1-c1cccc(C(F)(F)F)c1 |
| 22.3 nM | CCn1c(=O)c(-n2c(CCOC)nnc2-c2ccc(C#N)cc2)c(C)n(-c2cccc(C(F)(F)F)c2)c1=O |
| 7.9 nM | CCn1c(=O)c(-c2c(C(=O)N3CCOCC3)cnn2-c2ccc(C#N)cc2)c(C)n(-c2cccc(C(F)(F)F)c2)c1=O |

The match of structure and compound is tentative.
